Assay results: PMC4109901, “Functional EF-Hands in Neuronal Calcium Sensor GCAP2 Determine Its Phosphorylation State and Subcellular Distribution In Vivo, and Are Essential for Photoreceptor Cell Integrity” (PLoS Genetics, 2014)
Like-named read-outs stand apart in the source and are kept apart here. Results are given in words; binding and its absence hold for the method and conditions named. Binding seen in cells or lysates may run through a third protein. These calls come from enrichment with a bait or labelling near it, and not all partners need be listed.

Sequences of proteins named here, by UniProt entry; tags and fusion partners are left off. A change or cut given only in a name is not applied to a line headed by its entry.
UniProt P62259: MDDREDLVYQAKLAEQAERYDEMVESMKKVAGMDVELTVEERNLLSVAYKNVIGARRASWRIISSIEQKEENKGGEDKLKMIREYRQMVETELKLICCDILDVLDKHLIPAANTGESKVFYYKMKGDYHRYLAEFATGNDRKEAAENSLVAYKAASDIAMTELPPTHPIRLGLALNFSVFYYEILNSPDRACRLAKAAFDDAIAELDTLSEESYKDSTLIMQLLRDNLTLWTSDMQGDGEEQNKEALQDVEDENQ
UniProt P63101: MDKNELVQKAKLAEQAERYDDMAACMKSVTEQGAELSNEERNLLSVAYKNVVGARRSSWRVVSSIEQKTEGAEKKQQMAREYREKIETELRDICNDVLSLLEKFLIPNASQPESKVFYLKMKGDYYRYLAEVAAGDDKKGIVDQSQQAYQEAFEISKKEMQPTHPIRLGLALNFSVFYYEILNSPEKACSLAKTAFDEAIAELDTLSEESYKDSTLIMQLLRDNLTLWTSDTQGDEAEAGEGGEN

T1: bGCAP2, wildtype bovine GCAP2, transgene product in mouse rods (bovine) (UniProt P51177)
T1 sequence (chain, phosphorylated to low levels in vivo): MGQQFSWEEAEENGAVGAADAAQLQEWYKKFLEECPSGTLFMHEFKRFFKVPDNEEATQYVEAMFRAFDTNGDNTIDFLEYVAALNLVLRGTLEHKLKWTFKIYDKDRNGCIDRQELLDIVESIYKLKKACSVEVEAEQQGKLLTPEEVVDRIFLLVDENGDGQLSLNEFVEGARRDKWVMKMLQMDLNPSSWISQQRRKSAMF

T2: bEF^−GCAP2, bovine GCAP2(E80Q/E116Q/D158N), transgene product in mouse rods (bovine) (UniProt P51177)
T2 sequence (chain, phosphorylated to high levels in vivo (Ser201)): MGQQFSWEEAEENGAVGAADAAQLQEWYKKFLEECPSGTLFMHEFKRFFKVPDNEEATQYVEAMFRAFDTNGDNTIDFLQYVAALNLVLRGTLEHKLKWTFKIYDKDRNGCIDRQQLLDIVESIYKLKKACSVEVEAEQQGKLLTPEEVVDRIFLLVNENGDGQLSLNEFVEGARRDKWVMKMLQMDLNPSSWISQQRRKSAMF


Tests used:
Assay in all cases: affinity purification with mass spectrometry; anti-GCAP2 mAb2235 cross-linked to magnetic beads; forty retinas per phenotype in HEPES buffer pH 8.0, 135 mM NaCl, 4 mM EGTA, 1 mM NaF, 1% Triton-X100; 45 min at room temperature; elution at pH 2.5; LC-MS/MS; GCAPs−/− retinas as background
[1] = molecular target: T1, bGCAP2, wildtype bovine GCAP2, transgene product in mouse rods (bovine)
[2] = molecular target: T2, bEF^−GCAP2, bovine GCAP2(E80Q/E116Q/D158N), transgene product in mouse rods (bovine)
[3] = molecular target: T1, bGCAP2, wildtype bovine GCAP2, transgene product in mouse rods (bovine); remark: listed apart in the source
[4] = molecular target: T2, bEF^−GCAP2, bovine GCAP2(E80Q/E116Q/D158N), transgene product in mouse rods (bovine); remark: listed apart in the source

| Molecule | binding [1] | binding [2] | binding [3] | binding [4] |
| --- | --- | --- | --- | --- |
| 14-3-3 protein ε (mouse) (from UniProt P62259 1-255) | binds | binds |  |  |
| 14-3-3 protein γ (mouse) (protein, UniProt P61982 1-247) MVDREQLVQKARLAEQAERYDDMAAAMKNVTELNEPLSNEERNLLSVAYKNVVGARRSSWRVISSIEQKTSADGNEKKIEMVRAYREKIEKELEAVCQDVLSLLDNYLIKNCSETQYESKVFYLKMKGDYYRYLAEVATGEKRATVVESSEKAYSEAHEISKEHMQPTHPIRLGLALNYSVFYYEIQNAPEQACHLAKTAFDDAIAELDTLNEDSYKDSTLIMQLLRDNLTLWTSDQQDDDGGEGNN |  |  | binds | binds |
| 14-3-3 protein β/α (mouse) (protein, UniProt Q9CQV8 1-246) MTMDKSELVQKAKLAEQAERYDDMAAAMKAVTEQGHELSNEERNLLSVAYKNVVGARRSSWRVISSIEQKTERNEKKQQMGKEYREKIEAELQDICNDVLELLDKYLILNATQAESKVFYLKMKGDYFRYLSEVASGENKQTTVSNSQQAYQEAFEISKKEMQPTHPIRLGLALNFSVFYYEILNSPEKACSLAKTAFDEAIAELDTLNEESYKDSTLIMQLLRDNLTLWTSENQGDEGDAGEGEN |  |  | binds | binds |

Second part, the molecule after the results:

| binding [1] | binding [2] | binding [3] | binding [4] | Molecule |
| --- | --- | --- | --- | --- |
| binds | binds |  |  | 14-3-3 protein ζ/δ (mouse) (from UniProt P63101 1-245) |
|  |  | binds | binds | 14-3-3 protein τ (mouse) (protein, UniProt P68254 1-245) MEKTELIQKAKLAEQAERYDDMATCMKAVTEQGAELSNEERNLLSVAYKNVVGGRRSAWRVISSIEQKTDTSDKKLQLIKDYREKVESELRSICTTVLELLDKYLIANATNPESKVFYLKMKGDYFRYLAEVACGDDRKQTIENSQGAYQEAFDISKKEMQPTHPIRLGLALNFSVFYYEILNNPELACTLAKTAFDEAIAELDTLNEDSYKDSTLIMQLLRDNLTLWTSDSAGEECDAAEGAEN |
